For the test, the target named is rest of the mature (wild-type) human IL-12p40 subunit after cleavage between Lys260 and Arg261 (human) (UniProt P29460). Kind of test: co-purification with the recombinant antibody-IL-12 fusion protein; fragment seen only on reducing SDS-PAGE or denaturing RP-HPLC.

No constants are given. Whether binding was seen depends on the method and setting. In cells and extracts the contact can be indirect. Some binding calls cover weakened binding; strength is not graded here.

B1: C-terminal 46 amino acid peptide fragment of mature (wild-type) human IL-12p40 subunit, starting at Arg261 (peptide)
peptide: REKKDRVFTDKTSATVICRKNASISVRAQDRYYSSSWSEWASVPCS
Consider B1, for which the binding result is recorded as “binds”.
